Among the data in paper PMC4546478 are binding values, retold here.

By UniProt entry, the sequences of proteins in these tests, tags left out.
UniProt P49841: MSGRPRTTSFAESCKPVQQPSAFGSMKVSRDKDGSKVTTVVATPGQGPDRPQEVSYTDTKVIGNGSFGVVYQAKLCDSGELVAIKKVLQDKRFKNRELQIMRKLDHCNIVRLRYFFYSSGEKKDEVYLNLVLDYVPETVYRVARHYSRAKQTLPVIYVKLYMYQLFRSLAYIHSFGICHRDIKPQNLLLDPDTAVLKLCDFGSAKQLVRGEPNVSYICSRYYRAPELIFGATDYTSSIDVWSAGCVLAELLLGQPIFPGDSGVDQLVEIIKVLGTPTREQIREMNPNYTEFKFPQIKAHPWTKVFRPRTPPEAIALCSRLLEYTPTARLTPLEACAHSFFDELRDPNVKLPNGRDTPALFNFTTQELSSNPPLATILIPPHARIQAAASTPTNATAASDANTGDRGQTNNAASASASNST

These are yes or no findings as the source states them, for the method shown. Binding seen in cells or lysates may run through a third protein. Some binding calls cover weakened binding; strength is not graded here.

The target of assay [1] is phospho-glycogen synthase kinase 3β (human (endogenous in PCI55)) (UniProt P49841). Kind of assay: co-IP; endogenous proteins; lysates of PCI55 cells immunoprecipitated and blotted with the indicated antibodies; details in the Supplementary Materials and Methods.
In assay [2] the target is glycogen synthase kinase 3β (human (endogenous in PCI55)) (UniProt P49841). The assay is described as above.

With “Pim-3 kinase (from UniProt Q86V86 1-326) (enzyme)”, the binding result in assay [1] and in assay [2] was “binds” throughout.
